Data from PubChem BioAssay (NCATS).
The other results are listed elsewhere or left out. These are further read-outs of the screen, such as a control signal, another cell line or another target. No call is given for them. Most of these compounds were active or inconclusive in the main read-out, so they are no random draw. The note in brackets gives the kind of curve behind each potency; many fits are weak.

Experiment: qHTS for identification of novel therapeutic agents for treatment of microphthalmiaassociated transcription factor (MiT) renal cell carcinoma (RCC) (AID 1963991)
Conditions: TFE3-RCC viability, CellTiter-Glo, 48 h; measured here: UOK124 cell viability
Procedure, shortened: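 UOK109/UOK124/UOK145 (TFE3 fusions, three partners); 500 cells/well; MIPE v4.0, 1912 cpds, 11 conc.; 48 h, 37 C; CellTiter-Glo, 15 min RT; lum. Norm.: DMSO 100%, empty 0%.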

| SMILES | AC50 |
| --- | --- |
| CNC(=O)c1cc(COc2nnc(Nc3ccc(Cl)cc3)c3ccoc23)ccn1 | 33.2 µM [falling, single point] |
| CC[C@H](Nc1ncnc2nc[nH]c12)c1nc2cccc(F)c2c(=O)n1-c1ccccc1 | 10.5 µM [falling, partial curve, poor fit] |
| C[C@@]1(c2cc(-c3cncnc3)c(F)cc2F)CCSC(N)=N1 | 3.72 µM [falling, full curve] |
| CCN(CC)CCCCNc1nc2cc(Cl)c(Cl)cc2nc1-c1ccc(-c2cccs2)s1 | 8.33 µM [falling, full curve] |
| Nc1ccn([C@@H]2O[C@H](CO)[C@@H](O)[C@H]2O)c(=O)n1 | 0.332 µM [falling, partial curve, poor fit] |
| COc1cc(C[C@@H](CO)[C@H](CO)Cc2ccc(O)c(OC)c2)ccc1O | 16.6 µM [falling, partial curve] |
| CN(C)CC=CC(=O)Nc1cc2c(Nc3ccc(F)c(Cl)c3)ncnc2cc1O[C@H]1CCOC1 | 4.69 µM [falling, full curve] |
| CNC(=O)c1c(-c2ccc(F)cc2)oc2cc(N(CCO)S(C)(=O)=O)c(C3CC3)cc12 | 0.00105 µM [falling, full curve, poor fit] |
| O=c1[nH]c(=O)n([C@H]2C[C@@H](O)[C@@H](CO)O2)cc1C(F)(F)F | 8.33 µM [falling, full curve] |
| CC(C)(N)C(=O)N[C@H](COCc1ccccc1)C(=O)N1CCC2(CC1)CN(S(C)(=O)=O)c1ccccc12 | 23.5 µM [falling, partial curve] |
| N#CC(c1ccnc(NCCc2cccnc2)n1)c1nc2ccccc2s1 (stereo not given) | 20.9 µM [falling, partial curve] |
| COc1ccc(COc2cc3oc(=O)c4cc(C(C)O)ccc4c3cc2OC)cc1 (stereo not given) | 23.5 µM [falling, single point] |
| O=C1NC(=O)C(=Cc2ccc(-c3ccc(F)cc3O)o2)S1 | 14.8 µM [falling, partial curve, poor fit] |
| CCOC(=O)N1CCN([N+]([O-])=NOc2cc(ON=[N+]([O-])N3CCN(C(=O)OCC)CC3)c([N+](=O)[O-])cc2[N+](=O)[O-])CC1 | 26.4 µM [falling, single point] |
| C[C@@H]1[C@H](O)[C@@H](C)C=CC=CC=CC=CC=CC=CC=C[C@H](O[C@@H]2O[C@H](C)[C@H](O)[C@H](N)[C@@H]2O)C[C@@H]2O[C@](O)(C[C@@H](O)C[C@@H](O)[C@H](O)CC[C@@H](O)C[C@@H](O)CC(=O)O[C@H]1C)C[C@H](O)[C@@H]2C(=O)O | 3.32 µM [rising, partial curve, poor fit] |
| CN1CCCN(C(=O)c2cccc(-c3ccc(C=C4C(=O)Nc5ccc(Cl)cc54)o3)c2)CC1 | 14.8 µM [falling, partial curve] |
| CCOC(=O)N1CCN([N+]([O-])=NOc2ccc([N+](=O)[O-])cc2C#N)CC1 | 2.35 µM [falling, full curve] |
| CN(C)S(=O)(=O)c1ccc2c(c1)C(=Cc1cc3c([nH]1)CCCC3)C(=O)N2 | 16.6 µM [falling, partial curve, poor fit] |
| C[C@@H]1C[C@H]2[C@@H]3CCC4=CC(=O)C=C[C@]4(C)[C@@]3(Cl)[C@@H](O)C[C@]2(C)[C@@]1(OC(=O)c1ccco1)C(=O)CCl | 26.4 µM [falling, partial curve] |
| CC(C=CC=C(C)C=CC1=C(C)CCCC1(C)C)=CC=CC=C(C)C=CC=C(C)C=CC1=C(C)CCCC1(C)C | 16.6 µM [falling, partial curve, poor fit] |
| Cn1cnc(=N)c2[nH]cnc21 | 2.96 µM [falling, full curve] |
| CCn1c(-c2nonc2N)nc2c(C#CC(C)(C)O)ncc(OC[C@H]3CCCNC3)c21 | 37.2 µM [falling, single point] |
| O=C(C=Cc1cccc(S(=O)(=O)Nc2ccccc2)c1)NO | 9.59 µM [falling, full curve] |
| CC(=O)ON=C1C(c2c(O)[nH]c3cc(Br)ccc23)=Nc2ccccc21 | 3.72 µM [falling, full curve] |
| CS(=O)(=O)Oc1ccc2c(NC(N)=O)c(C(=O)c3ccc(Cl)cc3Cl)oc2c1 | 2.35 µM [falling, full curve] |
| Nc1ncn([C@@H]2O[C@H](CO)[C@@H](O)[C@@H]2O)c(=O)n1 | 7.43 µM [falling, partial curve] |
| CN(C)CC(C)(C)CNc1nn2c(-c3ccccc3)nnc2cc1C1CCC1 | 1.18 µM [falling, full curve] |
| COc1cc([C@@H]2c3cc4c(cc3[C@@H](O[C@@H]3O[C@@H]5CO[C@@H](c6cccs6)O[C@@H]5[C@H](O)[C@@H]3O)[C@H]3COC(=O)[C@H]23)OCO4)cc(OC)c1O | 0.743 µM [falling, full curve] |
| C[C@]1(CO)CN(c2cc(C(=O)Nc3ccc4c(c3)-c3c(c(C(N)=O)nn3-c3ccc(F)cc3)CC4)c(Cl)cn2)C[C@@]1(C)CO | 7.43 µM [falling, full curve] |
| O=C(O)c1ccc(-c2cc3cccnc3c(-c3ccc4nonc4c3)n2)cc1 | 18.7 µM [falling, partial curve] |

Compounds above that have a COOH group:

| SMILES | AC50 |
| --- | --- |
| C[C@@H]1[C@H](O)[C@@H](C)C=CC=CC=CC=CC=CC=CC=C[C@H](O[C@@H]2O[C@H](C)[C@H](O)[C@H](N)[C@@H]2O)C[C@@H]2O[C@](O)(C[C@@H](O)C[C@@H](O)[C@H](O)CC[C@@H](O)C[C@@H](O)CC(=O)O[C@H]1C)C[C@H](O)[C@@H]2C(=O)O | 3.32 µM [rising, partial curve, poor fit] |
| O=C(O)c1ccc(-c2cc3cccnc3c(-c3ccc4nonc4c3)n2)cc1 | 18.7 µM [falling, partial curve] |
